According to the supplement of paper PMC10849652:
The list shows a part of the results.

Protein sequences, listed by entry. Tags and fused reporters are not part of them. Lines headed by an entry give the natural chain unless they say otherwise; changes in a name come on top.
UniProt Q96LU5: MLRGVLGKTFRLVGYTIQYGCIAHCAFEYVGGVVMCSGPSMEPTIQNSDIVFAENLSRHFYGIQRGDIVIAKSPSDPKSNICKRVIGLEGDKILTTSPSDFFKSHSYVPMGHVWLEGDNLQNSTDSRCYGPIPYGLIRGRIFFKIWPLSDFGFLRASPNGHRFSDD
UniProt P22692: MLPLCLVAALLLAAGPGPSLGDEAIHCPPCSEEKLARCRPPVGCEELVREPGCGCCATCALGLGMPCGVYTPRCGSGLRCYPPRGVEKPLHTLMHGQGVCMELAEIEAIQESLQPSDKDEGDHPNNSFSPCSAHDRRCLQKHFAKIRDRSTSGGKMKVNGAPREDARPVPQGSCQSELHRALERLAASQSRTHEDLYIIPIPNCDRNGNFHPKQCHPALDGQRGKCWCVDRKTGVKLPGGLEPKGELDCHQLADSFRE
UniProt Q9Y5U9: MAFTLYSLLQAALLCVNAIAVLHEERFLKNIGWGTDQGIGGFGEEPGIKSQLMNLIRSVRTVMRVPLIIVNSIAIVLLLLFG
UniProt Q9Y6M1: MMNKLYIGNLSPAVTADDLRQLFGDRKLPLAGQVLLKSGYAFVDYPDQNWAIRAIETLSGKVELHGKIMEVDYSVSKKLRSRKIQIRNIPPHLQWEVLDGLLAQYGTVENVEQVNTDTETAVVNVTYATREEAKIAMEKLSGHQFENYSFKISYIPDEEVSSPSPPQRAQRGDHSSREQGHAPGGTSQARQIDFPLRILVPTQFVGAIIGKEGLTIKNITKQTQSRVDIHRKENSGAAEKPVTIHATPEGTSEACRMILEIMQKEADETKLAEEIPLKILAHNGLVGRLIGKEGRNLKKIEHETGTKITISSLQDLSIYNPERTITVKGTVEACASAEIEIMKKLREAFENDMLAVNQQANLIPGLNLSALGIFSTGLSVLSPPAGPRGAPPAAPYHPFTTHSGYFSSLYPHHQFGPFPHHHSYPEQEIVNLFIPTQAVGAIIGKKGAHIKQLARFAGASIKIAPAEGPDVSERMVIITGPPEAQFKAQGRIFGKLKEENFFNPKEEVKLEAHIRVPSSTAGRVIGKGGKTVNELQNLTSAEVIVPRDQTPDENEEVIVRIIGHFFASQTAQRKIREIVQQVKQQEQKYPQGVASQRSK
UniProt Q6PI98, whole entry, looked up: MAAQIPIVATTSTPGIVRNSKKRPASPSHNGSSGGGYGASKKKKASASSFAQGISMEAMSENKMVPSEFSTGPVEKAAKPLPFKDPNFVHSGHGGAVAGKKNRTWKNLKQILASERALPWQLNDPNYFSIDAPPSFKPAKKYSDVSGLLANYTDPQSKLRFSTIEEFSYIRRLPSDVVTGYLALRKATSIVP
UniProt Q13422: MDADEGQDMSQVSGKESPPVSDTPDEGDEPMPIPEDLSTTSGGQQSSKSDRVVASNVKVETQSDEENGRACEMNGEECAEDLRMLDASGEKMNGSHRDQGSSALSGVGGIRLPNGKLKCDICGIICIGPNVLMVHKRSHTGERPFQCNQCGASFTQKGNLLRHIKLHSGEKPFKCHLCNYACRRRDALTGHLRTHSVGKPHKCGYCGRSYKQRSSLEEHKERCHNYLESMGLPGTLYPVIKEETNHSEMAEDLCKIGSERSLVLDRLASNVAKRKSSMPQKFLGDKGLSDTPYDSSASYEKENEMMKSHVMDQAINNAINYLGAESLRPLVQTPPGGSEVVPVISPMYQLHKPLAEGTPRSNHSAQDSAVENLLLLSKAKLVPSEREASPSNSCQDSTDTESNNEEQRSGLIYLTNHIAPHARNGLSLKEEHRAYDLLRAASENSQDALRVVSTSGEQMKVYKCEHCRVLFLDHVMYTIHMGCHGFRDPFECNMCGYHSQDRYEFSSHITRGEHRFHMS
UniProt Q8NBZ0, whole entry, looked up: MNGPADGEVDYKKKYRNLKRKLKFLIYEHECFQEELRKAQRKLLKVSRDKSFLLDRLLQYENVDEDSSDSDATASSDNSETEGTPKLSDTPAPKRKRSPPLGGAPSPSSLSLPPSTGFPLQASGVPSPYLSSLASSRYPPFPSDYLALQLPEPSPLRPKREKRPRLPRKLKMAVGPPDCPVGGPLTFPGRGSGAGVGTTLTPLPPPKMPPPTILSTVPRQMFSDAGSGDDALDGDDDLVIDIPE
UniProt Q12894: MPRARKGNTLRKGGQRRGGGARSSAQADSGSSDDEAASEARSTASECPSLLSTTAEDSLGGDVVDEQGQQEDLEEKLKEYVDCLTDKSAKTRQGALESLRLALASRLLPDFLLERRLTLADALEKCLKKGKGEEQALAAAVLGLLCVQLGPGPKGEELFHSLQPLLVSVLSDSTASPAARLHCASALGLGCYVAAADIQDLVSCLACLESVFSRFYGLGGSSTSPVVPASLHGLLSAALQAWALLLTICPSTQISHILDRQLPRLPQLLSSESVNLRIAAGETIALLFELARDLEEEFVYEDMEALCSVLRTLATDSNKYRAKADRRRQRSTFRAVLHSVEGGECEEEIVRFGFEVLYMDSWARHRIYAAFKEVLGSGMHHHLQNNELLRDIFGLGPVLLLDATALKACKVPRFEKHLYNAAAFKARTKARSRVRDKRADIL
UniProt O14732: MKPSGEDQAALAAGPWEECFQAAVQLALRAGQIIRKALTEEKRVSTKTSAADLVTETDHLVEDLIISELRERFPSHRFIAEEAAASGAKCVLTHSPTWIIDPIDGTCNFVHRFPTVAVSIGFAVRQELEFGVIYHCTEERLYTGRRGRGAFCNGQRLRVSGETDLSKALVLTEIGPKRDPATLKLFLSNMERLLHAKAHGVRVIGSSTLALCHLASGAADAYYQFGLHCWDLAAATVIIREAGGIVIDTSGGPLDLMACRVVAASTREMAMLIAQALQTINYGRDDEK
UniProt Q6UWB1, whole entry, looked up: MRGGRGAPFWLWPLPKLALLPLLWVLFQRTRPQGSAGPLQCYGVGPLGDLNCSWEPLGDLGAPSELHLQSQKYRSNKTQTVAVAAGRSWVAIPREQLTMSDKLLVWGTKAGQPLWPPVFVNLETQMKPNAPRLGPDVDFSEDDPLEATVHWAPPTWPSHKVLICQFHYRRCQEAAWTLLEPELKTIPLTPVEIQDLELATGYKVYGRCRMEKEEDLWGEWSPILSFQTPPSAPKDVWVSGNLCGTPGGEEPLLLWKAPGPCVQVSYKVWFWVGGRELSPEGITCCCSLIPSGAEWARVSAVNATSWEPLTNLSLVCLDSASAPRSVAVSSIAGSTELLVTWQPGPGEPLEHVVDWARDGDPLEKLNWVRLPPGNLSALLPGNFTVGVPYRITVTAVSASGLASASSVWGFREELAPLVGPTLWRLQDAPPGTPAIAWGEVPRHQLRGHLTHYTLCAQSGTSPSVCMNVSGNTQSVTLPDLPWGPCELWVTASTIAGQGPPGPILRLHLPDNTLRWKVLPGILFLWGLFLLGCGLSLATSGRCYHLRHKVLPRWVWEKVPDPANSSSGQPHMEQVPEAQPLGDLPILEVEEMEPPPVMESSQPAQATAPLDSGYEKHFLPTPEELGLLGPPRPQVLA
UniProt Q5T440: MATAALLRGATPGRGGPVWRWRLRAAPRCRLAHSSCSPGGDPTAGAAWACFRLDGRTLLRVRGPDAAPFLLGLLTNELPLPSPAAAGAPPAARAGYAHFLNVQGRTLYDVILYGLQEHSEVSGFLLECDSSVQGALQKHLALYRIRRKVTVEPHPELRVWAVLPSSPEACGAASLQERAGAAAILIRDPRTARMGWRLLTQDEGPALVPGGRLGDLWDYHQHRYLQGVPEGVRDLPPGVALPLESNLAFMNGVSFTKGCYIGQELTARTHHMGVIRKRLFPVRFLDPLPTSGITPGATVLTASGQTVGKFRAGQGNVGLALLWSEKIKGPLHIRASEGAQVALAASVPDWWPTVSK
UniProt Q96EW2: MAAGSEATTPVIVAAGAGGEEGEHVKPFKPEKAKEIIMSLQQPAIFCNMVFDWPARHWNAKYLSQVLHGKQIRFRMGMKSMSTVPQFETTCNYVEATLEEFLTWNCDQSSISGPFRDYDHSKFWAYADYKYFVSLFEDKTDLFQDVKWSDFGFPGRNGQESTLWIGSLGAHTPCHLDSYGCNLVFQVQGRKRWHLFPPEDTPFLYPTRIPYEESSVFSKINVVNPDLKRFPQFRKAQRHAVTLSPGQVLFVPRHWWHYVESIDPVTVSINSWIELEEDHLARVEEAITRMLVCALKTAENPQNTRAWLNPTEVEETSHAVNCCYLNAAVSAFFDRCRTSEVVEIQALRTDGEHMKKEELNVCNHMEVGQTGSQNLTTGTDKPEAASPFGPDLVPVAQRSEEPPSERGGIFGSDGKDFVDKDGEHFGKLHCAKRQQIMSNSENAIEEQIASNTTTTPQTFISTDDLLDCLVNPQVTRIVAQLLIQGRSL

Columns and labels:
Assay in all cases: log2 fold change, soluble protein after heating vs DMSO (PISA); higher = thermal stabilisation; K562 lysate, 10 uM; active = over 0.2 and 3.5 SD of the protein, either way, in both replicates (recomputed)
ibrutinib = compound: C=CC(=O)N1CCC[C@@H](n2nc(-c3ccc(Oc4ccccc4)cc3)c3c(N)ncnc32)C1 [ibrutinib]
Method in brief: (§1)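 Log-two fold change in thermal stability relative to solvent controls is reported from duplicates. For each sample, crude K562 extract from dounce-homogenised pellets in PBS pH 7.4 with 1 mM MgCl2, at 1 mg/mL protein, was treated with 10 μM compound for 30 min. Aliquots heated for 3 min across 48°C-58°C were pooled, brought to 0.5% NP-40 at 4°C and cleared at 21,000xg for 90 min. The supernatant was quantified by TMTpro 16plex LC-MS/MS with channel sums equalised.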

[1] = compound: CC(=O)c1cnc2ccc(-c3cc(Cl)c(O)c(Cl)c3)nc2c1N[C@H]1CC[C@H](CN(C)C)CC1
Method in brief: as §1

ralimetinib = compound: CC(C)(C)Cn1c(N)nc2ccc(-c3[nH]c(C(C)(C)C)nc3-c3ccc(F)cc3)nc21 [ralimetinib]
Method in brief: as §1

[2] = compound: CC(C)(O)CC(=O)NCCn1ccc2ncnc(Nc3ccc(Oc4cccc(C(F)(F)F)c4)c(Cl)c3)c21
Method in brief: as §1

[3] = compound: CC(C)C1=C2N=C(C=C(N2N=C1)NCC3=CC=CC=C3)NCCCCCCN
Method in brief: as §1

[4] = compound: CC1=C(C(CC(=O)N1)C2=CC=C(C=C2)C(F)(F)F)C(=O)NC3=C(C=C4C(=C3)C=NN4)F
Method in brief: as §1

[5] = compound: CC1=C(C2=C(C=C1)C(=O)C3=CC=CC=C3N2CCCN)C
Method in brief: as §1

[6] = compound: CC1=C(C=C(C=C1)NC(=O)C2=CC(=CC=C2)C(C)(C)C#N)NC3=CC4=C(C=C3)N=CN(C4=O)C
Method in brief: as §1

[7] = compound: CC1=C(C=C(C=C1)NC(=O)C2=CC(=CC=C2)N(C)C)NC(=O)C3=CC=C(C=C3)O
Method in brief: as §1

[8] = compound: CC1=CC=C(C=C1)SC2=C3C=C(SC3=CN=C2)C(=O)N
Method in brief: as §1

[9] = compound: CCCS(=O)(=O)Nc1ccc(F)c(C(=O)c2c[nH]c3ncc(Cl)cc23)c1F
Method in brief: as §1

barasertib = compound: CCN(CCCOc1ccc2c(Nc3cc(CC(=O)Nc4cccc(F)c4)[nH]n3)ncnc2c1)CCOP(=O)(O)O [barasertib]
Method in brief: as §1

[10] = compound: CC[C@@H]1C(=O)N(C)c2cnc(Nc3ccc(C(=O)NC4CCN(C)CC4)cc3OC)nc2N1C1CCCC1
Method in brief: as §1

volasertib = compound: CC[C@@H]1C(=O)N(C)c2cnc(Nc3ccc(C(=O)N[C@H]4CC[C@H](N5CCN(CC6CC6)CC5)CC4)cc3OC)nc2N1C(C)C [volasertib]
Method in brief: as §1

[11] = compound: CCn1c(C(=O)N(C2CC2)C2CC2)cc2c3c(ncn3C)c(Nc3cc(C)n(C)n3)nc21
Method in brief: as §1

[12] = compound: CCn1cc(-c2ccnc3[nH]c(-c4cccc(CN(C)C)c4)cc23)c(-c2ccc(NC(=O)N(C)C)cc2)n1
Method in brief: as §1

[13] = compound: CN1CCC(CNc2ccc3ncc(-c4cccc(OC(F)(F)F)c4)n3n2)CC1
Method in brief: as §1

saracatinib = compound: CN1CCN(CCOc2cc(OC3CCOCC3)c3c(Nc4c(Cl)ccc5c4OCO5)ncnc3c2)CC1 [saracatinib]
Method in brief: as §1

sotrastaurin = compound: CN1CCN(c2nc(C3=C(c4c[nH]c5ccccc45)C(=O)NC3=O)c3ccccc3n2)CC1 [sotrastaurin]
Method in brief: as §1

vemurafenib = compound: CCCS(=O)(=O)Nc1ccc(F)c(C(=O)c2c[nH]c3ncc(-c4ccc(Cl)cc4)cc23)c1F [vemurafenib]
Method in brief: as §1

Measured: log2 fold change

IMMP1L (UniProt Q96LU5)
inactive: ibrutinib 0.04 | [1] 0.043 | ralimetinib 0.04 | [2] -0.021 | [3] -0.074 | [4] -0.036 | [5] -0.037 | [6] -0.007 | [7] 0.027 | [8] -0.069 | [9] -0.005 | barasertib 0.076 | [10] 0.207 | volasertib 0.019 | [11] -0.012 | [12] 0.005 | [13] -0.085 | saracatinib -0.052 | sotrastaurin -0.03

IMPDH2 (UniProt H0Y4R1)
inactive: ibrutinib -0.025 | [1] -0.047 | ralimetinib -0.069 | [2] -0.112 | [4] -0.019 | [5] 0.032 | [6] -0.04 | [7] 0.062 | [8] 0.032 | vemurafenib -0.047 | [9] 0.114 | barasertib 0.134 | [10] 0.195 | volasertib 0.001 | [11] -0.1 | [12] 0.059 | [13] 0.129 | saracatinib 0.043 | sotrastaurin 0.116

IGFBP4 (UniProt P22692)
inactive: ibrutinib 0.035 | [1] 0.169 | ralimetinib 0.012 | [2] -0.087 | [3] -0.029 | [4] -0.021 | [5] 0.236 | [6] 0.123 | [7] 0.037 | [8] -0.139 | [9] -0.171 | barasertib -0.281 | volasertib -0.002 | [11] 0.04 | [12] -0.063 | [13] 0.009 | saracatinib 0.016 | sotrastaurin -0.028

2 neighbouring records from above, quoted:
IMMP1L (UniProt Q96LU5)
inactive: ibrutinib 0.04 | [1] 0.043 | ralimetinib 0.04 | [2] -0.021 | [3] -0.074 | [4] -0.036 | [5] -0.037 | [6] -0.007 | [7] 0.027 | [8] -0.069 | [9] -0.005 | barasertib 0.076 | [10] 0.207 | volasertib 0.019 | [11] -0.012 | [12] 0.005 | [13] -0.085 | saracatinib -0.052 | sotrastaurin -0.03

IMPDH2 (UniProt H0Y4R1)
inactive: ibrutinib -0.025 | [1] -0.047 | ralimetinib -0.069 | [2] -0.112 | [4] -0.019 | [5] 0.032 | [6] -0.04 | [7] 0.062 | [8] 0.032 | vemurafenib -0.047 | [9] 0.114 | barasertib 0.134 | [10] 0.195 | volasertib 0.001 | [11] -0.1 | [12] 0.059 | [13] 0.129 | saracatinib 0.043 | sotrastaurin 0.116

Later entries:

HTD2 (UniProt P86397)
inactive: ibrutinib 0.009 | [1] -0.017 | ralimetinib 0.013 | [2] 0.027 | [4] -0.05 | [6] -0.026 | [7] -0.035 | [8] -0.046 | vemurafenib -0.013 | [9] 0 | barasertib 0.128 | [10] -0.065 | volasertib 0 | [11] 0.128 | [12] -0.037 | [13] 0.026 | sotrastaurin 0.038

IGKC (UniProt P01834)
inactive: ibrutinib -0.32 | [1] 0.202 | ralimetinib -0.028 | [2] 0.369 | [3] 1.66 | [4] 2.07 | [5] -0.095 | [7] -0.04 | [8] -0.045 | [9] 0.074 | barasertib -0.106 | [10] -0.056 | volasertib 0.06 | [11] 0.063 | [12] 0.605 | [13] -0.211 | saracatinib -0.094

IER3IP1 (UniProt Q9Y5U9)
inactive: ibrutinib -0.056 | [1] -0.047 | ralimetinib 0.278 | [2] -0.092 | [3] -0.171 | [4] 0.018 | [5] -0.072 | [7] 0.278 | [8] -0.015 | vemurafenib 0.037 | [9] 0.084 | barasertib 0.242 | [10] -0.001 | volasertib 0 | [11] -0.01 | [12] -0.188 | [13] 0.094 | saracatinib -0.002

HUWE1 (UniProt Q7Z6Z7)
inactive: ibrutinib 0.012 | [1] -0.001 | ralimetinib 0.024 | [2] -0.011 | [3] 0 | [4] 0 | [5] -0.014 | [6] 0 | [7] 0 | [8] -0.005 | vemurafenib 0.012 | [9] 0.012 | barasertib 0.002 | [10] 0.003 | volasertib 0 | [11] 0.004 | [12] -0.025 | [13] 0.011 | saracatinib -0.003 | sotrastaurin 0

HSPG2 (UniProt P98160)
inactive: ibrutinib -0.07 | [1] 0.035 | ralimetinib -0.035 | [2] -0.101 | [3] 0.006 | [4] 0.068 | [5] 0.008 | [6] 0.014 | [7] 0.043 | [8] -0.003 | vemurafenib 0.02 | [9] 0.009 | barasertib 0.134 | [10] -0.048 | volasertib -0.026 | [11] -0.026 | [12] -0.161 | [13] 0.179 | saracatinib 0.058 | sotrastaurin 0.014

IGF2BP2 (UniProt Q9Y6M1)
inactive: ibrutinib 0.035 | [1] 0.007 | ralimetinib 0.056 | [2] 0.035 | [3] 0.007 | [4] -0.008 | [5] -0.036 | [6] -0.075 | [7] 0.006 | [8] 0.056 | vemurafenib 0.05 | [9] 0.026 | barasertib -0.005 | [10] -0.1 | volasertib -0.049 | [11] 0.02 | [12] -0.066 | [13] 0.036 | saracatinib 0.014 | sotrastaurin 0.026

HUWE1, A0A087X1S3
inactive: ibrutinib 0.038 | [1] 0.046 | ralimetinib -0.129 | [2] -0.092 | [5] -0.148 | [7] 0 | [8] -0.006 | [9] 0.052 | barasertib -0.089 | [10] 0.008 | volasertib -0.028 | [11] -0.114 | [12] 0.043 | [13] 0.241 | saracatinib 0.074

INO80C isoform 4 (UniProt Q6PI98)
inactive: ibrutinib 0.1 | [1] -0.228 | ralimetinib 0.065 | [2] -0.099 | [4] 0.005 | [5] 0.011 | [7] -0.188 | [8] 0.163 | [9] 0.03 | barasertib 0.012 | volasertib 0.063 | [11] -0.088 | saracatinib 0.127

IKZF1 (UniProt Q13422)
inactive: ibrutinib 0.049 | [1] -0.008 | ralimetinib -0.026 | [2] -0.038 | [3] 0.016 | [4] 0.072 | [5] -0.061 | [6] 0.012 | [7] 0.01 | [8] -0.023 | vemurafenib 0.028 | [9] 0.044 | barasertib 0.054 | [10] 0.019 | volasertib -0.007 | [11] -0.034 | [12] 0.062 | [13] -0.055 | saracatinib 0.033 | sotrastaurin -0.108

INO80E (UniProt Q8NBZ0)
inactive: ibrutinib -0.053 | [1] -0.056 | ralimetinib 0.167 | [2] -0.126 | [3] 0.09 | [4] 0.081 | [5] 0.037 | [6] 0.122 | [7] -0.014 | [8] 0.134 | [9] 0.375 | barasertib -0.09 | [10] -0.02 | volasertib -0.144 | [11] -0.006 | [12] 0.168 | [13] -0.001 | saracatinib 0.161 | sotrastaurin 0.08

IFRD2 isoform 2 (UniProt Q12894)
inactive: ibrutinib -0.055 | [1] 0.031 | ralimetinib 0.003 | [2] -0.033 | [3] -0.061 | [5] -0.061 | [6] 0.007 | [7] -0.081 | [8] 0.061 | vemurafenib 0.027 | [9] -0.069 | barasertib -0.17 | [10] 0.042 | volasertib -0.011 | [11] 0.004 | [12] -0.179 | [13] 0.062 | saracatinib -0.062 | sotrastaurin -0.02

IMPA2 (UniProt O14732)
inactive: ibrutinib 0.03 | [1] 0.038 | ralimetinib 0.016 | [2] 0.112 | [3] -0.12 | [5] 0.028 | [6] 0.014 | [7] -0.017 | [8] 0.12 | vemurafenib 0.002 | [9] -0.002 | barasertib 0.131 | [10] -0.098 | volasertib -0.051 | [11] 0.09 | [12] 0.149 | [13] 0.051 | saracatinib 0.039 | sotrastaurin 0.009

IL27RA (UniProt Q6UWB1)
inactive: ibrutinib -0.031 | [1] -0.051 | ralimetinib -0.002 | [2] -0.184 | [3] 0.153 | [4] -0.006 | [5] 0.08 | [6] 0.02 | [7] -0.131 | [8] 0.054 | [9] -0.045 | barasertib -0.068 | [10] -0.103 | volasertib -0.116 | [11] 0.081 | [12] -0.033 | [13] 0.011 | saracatinib -0.05 | sotrastaurin 0.037

IBA57 (UniProt Q5T440)
inactive: ibrutinib 0.035 | [1] 0.014 | ralimetinib 0.012 | [2] 0.013 | [3] -0.024 | [4] -0.037 | [5] -0.001 | [6] -0.091 | [7] 0.014 | [8] 0.03 | vemurafenib 0.01 | [9] -0.019 | barasertib -0.038 | [10] -0.024 | volasertib -0.024 | [11] -0.004 | [12] -0.015 | [13] 0.048 | saracatinib 0.023 | sotrastaurin 0.017

HSPBAP1 (UniProt Q96EW2)
inactive: ibrutinib -0.008 | [1] 0.039 | ralimetinib -0.056 | [2] -0.095 | [3] 0.038 | [4] -0.214 | [5] -0.324 | [6] 0.002 | [7] 0.084 | [8] 0.084 | [9] 0.04 | barasertib 0.012 | [10] 0.155 | volasertib 0.044 | [11] -0.058 | [12] -0.293 | [13] -0.038 | saracatinib -0.054 | sotrastaurin 0.027
